Experimental data from article PMC8379249.
No constants are given. Whether binding was seen depends on the method and setting. Binding seen in cells or lysates may run through a third protein. Some results given as binding are weak or reduced against the parent protein; the word gives no strength.

By UniProt entry, the sequences of proteins in these tests, tags left out.
UniProt P06211: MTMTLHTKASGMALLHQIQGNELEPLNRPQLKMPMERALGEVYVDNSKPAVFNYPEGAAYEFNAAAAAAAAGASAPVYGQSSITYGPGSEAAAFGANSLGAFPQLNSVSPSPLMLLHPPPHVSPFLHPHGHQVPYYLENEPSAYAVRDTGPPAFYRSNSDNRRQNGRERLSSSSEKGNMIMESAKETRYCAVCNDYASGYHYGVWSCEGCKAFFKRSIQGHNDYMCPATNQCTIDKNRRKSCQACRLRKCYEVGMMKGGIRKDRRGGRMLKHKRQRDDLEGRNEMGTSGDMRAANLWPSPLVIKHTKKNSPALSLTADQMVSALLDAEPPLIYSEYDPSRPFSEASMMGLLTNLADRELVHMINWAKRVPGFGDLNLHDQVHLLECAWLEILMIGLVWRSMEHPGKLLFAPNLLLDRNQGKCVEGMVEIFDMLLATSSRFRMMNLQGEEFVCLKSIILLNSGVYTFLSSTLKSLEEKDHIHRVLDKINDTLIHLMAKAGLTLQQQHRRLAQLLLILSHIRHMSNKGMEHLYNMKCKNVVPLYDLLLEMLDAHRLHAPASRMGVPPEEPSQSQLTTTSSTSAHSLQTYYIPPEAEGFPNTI

Target: T1, Retinoid X receptor α (RXRα), endogenous in rat primary chondrocytes (rat (endogenous in primary chondrocytes)) (UniProt Q05343)
T1 sequence: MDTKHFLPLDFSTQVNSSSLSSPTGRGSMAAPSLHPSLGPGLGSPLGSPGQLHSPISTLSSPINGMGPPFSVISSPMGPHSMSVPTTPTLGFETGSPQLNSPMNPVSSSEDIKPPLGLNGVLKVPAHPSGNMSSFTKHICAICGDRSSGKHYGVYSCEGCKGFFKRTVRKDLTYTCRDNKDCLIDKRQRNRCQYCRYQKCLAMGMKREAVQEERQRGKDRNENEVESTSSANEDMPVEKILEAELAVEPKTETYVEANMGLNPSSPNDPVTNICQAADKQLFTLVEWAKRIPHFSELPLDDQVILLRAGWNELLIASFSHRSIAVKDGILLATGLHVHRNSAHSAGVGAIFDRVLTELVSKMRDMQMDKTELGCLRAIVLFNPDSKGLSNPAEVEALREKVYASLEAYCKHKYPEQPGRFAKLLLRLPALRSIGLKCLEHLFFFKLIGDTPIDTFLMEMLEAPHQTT
Experiment: co-IP; primarily cultured rat chondrocytes, endogenous proteins, treated with K-80003 (1 μM, 5 μM, 25 μM); co-IP using anti-RXRα or anti-ERα antibody

binding: binds
Substance: Estrogen receptor α (ERα), endogenous in rat primary chondrocytes (from UniProt P06211 1-600)
